Laboratory results: PubChem BioAssay AID652272 (Drosophila RNAi Screening Center, 2013)

Test: 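Genes whose knock-down decreases or increases Hedgehog reporter output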 (primary screen)
Cell system: Drosophila clone 8 (Cl8) cells
Knock-down reagent: long dsRNA against Drosophila genes
Measured: 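Plate reader light from a firefly reporter under a ptc promoter fragment that responds to Hedgehog, with Renilla light as transfection reference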
Scale: firefly Hh reporter signal: higher = more ptc reporter light; Renilla reference signal: higher = more Renilla control light
Hit rule: 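Called a hit if the two-replicate mean z-score lies below -2 or above +3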
Calls: active = hit: reporter lowered or raised; inactive = not a hit
The screen tested about 21,000 reagents; shown is an unselected part of those that have a named target and a result. Of all reagents, 503 (2.4%) are marked active. 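Raw plate light values, not normalised; calls rest on replicate z-scores that were not deposited; hits include reporter decreases as well as increases.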 Reagents against one gene are numbered here. No sequences are given here. Not stated in the record: the amount of reagent, the time to read-out.

After knock-down of Pop5 the results were firefly Hh reporter signal, replicate 1 = 1.38e5; Renilla reference signal, replicate 1 = 246; Renilla reference signal, replicate 2 = 2229; inactive.
Poc1 scored firefly Hh reporter signal, replicate 1 = 76469; firefly Hh reporter signal, replicate 2 = 82204; Renilla reference signal, replicate 1 = 3990; Renilla reference signal, replicate 2 = 3425; inactive.
Silencing of CG14937 gave: firefly Hh reporter signal, replicate 1 = 1.06e5; firefly Hh reporter signal, replicate 2 = 47928; Renilla reference signal, replicate 1 = 2668; Renilla reference signal, replicate 2 = 3542; inactive.
CG42258 #1 showed firefly Hh reporter signal, replicate 1 = 57400; firefly Hh reporter signal, replicate 2 = 1.72e5; Renilla reference signal, replicate 1 = 2711; Renilla reference signal, replicate 2 = 7770; inactive.
Against CG42258 #2 the deposit lists firefly Hh reporter signal, replicate 1 = 64685; firefly Hh reporter signal, replicate 2 = 1.62e5; Renilla reference signal, replicate 1 = 2304; Renilla reference signal, replicate 2 = 7191; inactive.
CG15260 gave firefly Hh reporter signal, replicate 1 = 1.21e5; firefly Hh reporter signal, replicate 2 = 59872; Renilla reference signal, replicate 1 = 3674; Renilla reference signal, replicate 2 = 4941; inactive.
Depletion of pdm3 #1 resulted in: firefly Hh reporter signal, replicate 1 = 1.19e5; firefly Hh reporter signal, replicate 2 = 81757; Renilla reference signal, replicate 1 = 2893; Renilla reference signal, replicate 2 = 7445; inactive.
pdm3 #2 gave firefly Hh reporter signal, replicate 1 = 1.26e5; firefly Hh reporter signal, replicate 2 = 61744; Renilla reference signal, replicate 1 = 3211; Renilla reference signal, replicate 2 = 5643; inactive.
Silencing of CG31109 resulted in: firefly Hh reporter signal, replicate 1 = 5.14e5; firefly Hh reporter signal, replicate 2 = 1.07e5; Renilla reference signal, replicate 1 = 28796; Renilla reference signal, replicate 2 = 3316; inactive.
CG1965 scored firefly Hh reporter signal, replicate 1 = 2.05e5; firefly Hh reporter signal, replicate 2 = 8.43e5; firefly Hh reporter signal, replicate 3 = 1.48e5; Renilla reference signal, replicate 1 = 7800; Renilla reference signal, replicate 2 = 49524; inactive.
Silencing of Ugt35A1 resulted in: firefly Hh reporter signal, replicate 1 = 98704; firefly Hh reporter signal, replicate 2 = 68805; Renilla reference signal, replicate 1 = 3924; Renilla reference signal, replicate 2 = 2652; inactive.
Depletion of Arfrp1 came out at: firefly Hh reporter signal, replicate 1 = 55435; firefly Hh reporter signal, replicate 2 = 67274; Renilla reference signal, replicate 1 = 1120; Renilla reference signal, replicate 2 = 1593; inactive.

No new results follow: 2 of the entries above.
CG31109 → firefly Hh reporter signal, replicate 1 = 5.14e5; firefly Hh reporter signal, replicate 2 = 1.07e5; Renilla reference signal, replicate 1 = 28796; Renilla reference signal, replicate 2 = 3316; outcome = inactive
CG1965 → firefly Hh reporter signal, replicate 1 = 2.05e5; firefly Hh reporter signal, replicate 2 = 8.43e5; firefly Hh reporter signal, replicate 3 = 1.48e5; Renilla reference signal, replicate 1 = 7800; Renilla reference signal, replicate 2 = 49524; outcome = inactive
